{"source": "patent US6489358B2", "about": "“Pharmaceutical compositions containing mupirocin” (Agis Industries (1983) Ltd., priority 2000, dated 2002)", "test": "Solubility of 2% solutions (calculated as free acid) in pharmaceutically acceptable hydrophilic solvents", "format": "physicochemical", "details": "2% solution (calculated as free acid) in Glycerine; calcium dihydrate", "text": "The following table presents the solubility of mupirocin calcium amorphous, compared to the solubility of the crystalline form, in various pharmaceutically acceptable hydrophilic solvents. We prepared 2% solutions (calculated as free acid), similar to the commercially available products.", "note": "At least one compound was matched to its structure with a doubt left."}
{"smiles": "C/C(=C\\C(=O)OCCCCCCCCC(=O)[O-])C[C@@H]1OC[C@H](C[C@@H]2O[C@H]2[C@@H](C)[C@H](C)O)[C@@H](O)[C@H]1O.C/C(=C\\C(=O)OCCCCCCCCC(=O)[O-])C[C@@H]1OC[C@H](C[C@@H]2O[C@H]2[C@@H](C)[C@H](C)O)[C@@H](O)[C@H]1O.O.O.[Ca+2]", "note": "[Mupirocin Ca crystalline, crystalline Mupirocin calcium dihydrate]", "values": [{"measurement": "Solubility (at room temperature)", "value": "Partially soluble"}]}
